Measured values reported in PubChem BioAssay AID2417 (National Center for Advancing Translational Sciences (NCATS), 2010).
The whole screen tested about 140,000 compounds, of which about 4,300 (3.1%) were called active. Inconclusive results, whose numbers are uncertain, are shown with a selection of clear calls.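 How the source made its calls: active means readout at or below -70, meaning at least 70% loss of cells showing the perinucleolar compartment, a nuclear body marking cancer cells; inconclusive means readout between -30 and a set limit; inactive means the rest.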

Experiment: High Content Assay for Compounds that inhibit the Assembly of the Perinucleolar Compartment;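 further: plate controls were DMSO wells for no effect and camptothecin positive control wells for full effect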
Details: PC3M PTB-GFP, PNC prevalence imaging, 16 h; at 10 µM; active compounds read low
Procedure, shortened: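 PC3M cells stably expressing PTB-GFP, 750–1000 cells/well, treated 16 h at 37 °C with compound (23 nl of library stock), in duplicate. After paraformaldehyde fixation and Hoechst stain, imaged at 20x; PNC prevalence scored by image analysis.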
In the case of `Cc1c(C(=O)NCCSCc2ccccc2Cl)cccc1[N+](=O)[O-]`, the activity change (PNC), negative = inhibition is reported as inconclusive: -73.6%. For `CCOc1cc(C)c(Cl)cc1S(=O)(=O)NCCOC`, the activity change (PNC), negative = inhibition was inconclusive: -37.5%. With `Nc1ccc(C(=O)OCC(=O)N2c3ccccc3Sc3ccccc32)cc1[N+](=O)[O-]` the activity change (PNC), negative = inhibition was inconclusive: -76.7%. For `COC(=O)c1ccccc1NC(=O)CNc1cc(OC)c(OC)cc1C`, the activity change (PNC), negative = inhibition was inconclusive: -48.1%. For `Cc1sc2ncnc(NCCc3ccc(S(N)(=O)=O)cc3)c2c1C`, the activity change (PNC), negative = inhibition was inactive: 5.11%. In the case of `CCCCCn1c(=O)c(C(=O)OCC)c(O)c2ccccc21`, the activity change (PNC), negative = inhibition is reported as inactive: 19.2%. With `COc1ccc(-c2cn3c(C)c(C(=O)Nc4ccncc4)sc3n2)cc1` the activity change (PNC), negative = inhibition was inconclusive: -31.6%. For `COc1ccc(N(CC(=O)O)S(C)(=O)=O)cc1OC`, the activity change (PNC), negative = inhibition was inconclusive: -60.7%. For `COc1cccc(/C=C/C(=O)OCC(=O)Nc2ccc(S(=O)(=O)N3CCCC3)cc2)c1`, the activity change (PNC), negative = inhibition was inactive: 42.9%. For `Cc1cc(C)nc(SCC(=O)c2ccc3c(c2)OCCO3)n1`, the activity change (PNC), negative = inhibition was inconclusive: -50.6%. In the case of `Cc1cccc(N(CC(=O)N/N=C/c2ccc(OCC(=O)NCc3ccco3)cc2)S(C)(=O)=O)c1C`, the activity change (PNC), negative = inhibition is reported as inconclusive: -73.2%. In the case of `Cc1cccc(C)c1N(CC(=O)Nc1cccc(N(C)S(C)(=O)=O)c1)S(C)(=O)=O`, the activity change (PNC), negative = inhibition is reported as inactive: 30.9%. For `CN(C)/C=C/C(=O)/C=C/c1cn(-c2ncc(C(F)(F)F)cc2Cl)c2ccccc12`, the activity change (PNC), negative = inhibition was inconclusive: -40.4%. In the case of `S=C(Nc1ccccc1)Nc1nc2ccccc2n1CCOc1ccc(Br)cc1`, the activity change (PNC), negative = inhibition is reported as inconclusive: -37.2%. With `O=c1[nH]n(-c2ccccc2)c(=O)c2ccccc12` the activity change (PNC), negative = inhibition was inconclusive: -47.8%. In the case of `C=CCOC(=O)C1=C(C)N=C2SCCC(=O)N2C1c1ccc(OC(=O)c2ccco2)cc1` (stereo unspecified), the activity change (PNC), negative = inhibition is reported as active: -127%. In the case of `CCOC(=O)C(=O)/C(C#N)=C/Nc1ccc(F)cc1`, the activity change (PNC), negative = inhibition is reported as inconclusive: -42%. For `Cc1nnc(-c2ccc(Oc3ccc(C)c(C)c3)c([N+](=O)[O-])c2)o1`, the activity change (PNC), negative = inhibition was inconclusive: -47.8%. With `O=C(Nc1ccc(S(=O)(=O)NCc2ccco2)cc1)c1ccncc1` the activity change (PNC), negative = inhibition was inconclusive: -47.2%. In the case of `CC(=O)C1=C(O)C(=O)N(CCC(=O)O)C1c1cccc(F)c1` (stereo unspecified), the activity change (PNC), negative = inhibition is reported as inconclusive: -70.3%. For `C=CCNC(=S)N/N=C(\C)c1ccc(OC)cc1`, the activity change (PNC), negative = inhibition was inconclusive: -32.2%. With `C=CCSc1nnc(NC(=O)CSc2nc(CCC)cc(=O)[nH]2)s1` the activity change (PNC), negative = inhibition was inactive: -23.5%. With `O=C(CSc1ncccn1)Nc1ccc(N2CCOCC2)cc1` the activity change (PNC), negative = inhibition was inconclusive: -44%. With `CCOc1cc(C2NC(=S)NC(C)=C2C(=O)Nc2ccc(OC)cc2)ccc1O` (stereo unspecified) the activity change (PNC), negative = inhibition was inconclusive: -44.6%. For `O=C(Nc1ccc(NC(=O)C2CC2)cn1)c1ccccc1Cl`, the activity change (PNC), negative = inhibition was active: -112%. With `CCC(C(=O)NNC(=O)c1cnccn1)c1ccccc1` (stereo unspecified) the activity change (PNC), negative = inhibition was inactive: -3.43%. For `Nc1nonc1-c1noc(COc2ccccc2Cl)n1`, the activity change (PNC), negative = inhibition was inconclusive: -30.1%. With `CCCCCCCC[n+]1cccc(C(=O)N(CC)CC)c1` the activity change (PNC), negative = inhibition was active: -124%. With `CC(=O)N1CCN(c2ccc(Nc3nc(C)nc4c3oc3ccccc34)cc2)CC1` the activity change (PNC), negative = inhibition was inconclusive: -40%. For `Cc1cc(C)n(-c2nncn2/N=C/c2ccccc2F)n1`, the activity change (PNC), negative = inhibition was inconclusive: -40.9%. With `Cc1cnc(NC(=O)CSc2nnc(COc3c(C)cccc3C)o2)s1` the activity change (PNC), negative = inhibition was active: -119%. In the case of `Cc1ccc(NC(=O)CSc2nnnn2C)cc1S(=O)(=O)N(C)C`, the activity change (PNC), negative = inhibition is reported as inconclusive: -54.1%. In the case of `O=C(Cn1c(=O)[nH]n(-c2ccccc2)c1=O)N1CCCc2ccccc21`, the activity change (PNC), negative = inhibition is reported as inactive: 4.91%. For `Cc1cccc(NC(=S)NC(C)CCc2ccccc2)c1` (stereo unspecified), the activity change (PNC), negative = inhibition was inconclusive: -46.5%. In the case of `Cc1cc(C(C)(C)C)cc(S(=O)(=O)Nc2ccc(O)c(C(=O)O)c2)c1C`, the activity change (PNC), negative = inhibition is reported as inactive: 37.2%. For `Cn1cccc1C1NC(=O)c2c(sc3c2CCC(C(C)(C)C)C3)N1` (stereo unspecified), the activity change (PNC), negative = inhibition was inconclusive: -54.5%. With `COC(=O)C1=C(C(=O)OC)C(c2cc(Cl)ccc2O)c2sc(=O)[nH]c2S1` (stereo unspecified) the activity change (PNC), negative = inhibition was inactive: 18.8%. For `CC(C)[C@H](NC(=O)c1ccc(C(C)(C)C)cc1)C(=O)Nc1nnc(C2CC2)s1`, the activity change (PNC), negative = inhibition was inactive: 21.5%. For `O=C(CSc1nc2ccsc2c(=O)n1Cc1ccc(C(=O)O)cc1)NCc1ccco1`, the activity change (PNC), negative = inhibition was active: -113%. With `COc1ccc(-c2cc(C(=O)NC(Cc3c[nH]c4ccccc34)C(=O)O)c(C)o2)cc1OC` (stereo unspecified) the activity change (PNC), negative = inhibition was inactive: 41%. With `Clc1ccc(CSc2nnc(CNc3cccc(Cl)c3)o2)cc1` the activity change (PNC), negative = inhibition was inconclusive: -37.8%. In the case of `Cc1ccc(NC(=O)COC(=O)C(NS(=O)(=O)c2ccc(Cl)cc2)C(C)O)cc1` (stereo unspecified), the activity change (PNC), negative = inhibition is reported as inactive: -5.13%. In the case of `COc1cccc(/C(O)=C2/C(=O)C(=O)N(CCCN(C)C)C2c2cccc(Cl)c2)c1` (stereo unspecified), the activity change (PNC), negative = inhibition is reported as inconclusive: -31.6%. With `O=C(O)c1cnc(-c2ccccc2)nc1Sc1cccc(Cl)c1` the activity change (PNC), negative = inhibition was inconclusive: -36.3%. For `CSc1ccc(-c2nnn(Cc3ccccn3)n2)cc1`, the activity change (PNC), negative = inhibition was inconclusive: -30.5%. For `O=C(NC(=S)Nc1ccc(S(=O)(=O)Nc2nccs2)cc1)c1ccc(F)cc1`, the activity change (PNC), negative = inhibition was inactive: -3.37%. In the case of `Nc1nc(-c2ccc(Br)s2)c(Br)s1`, the activity change (PNC), negative = inhibition is reported as inconclusive: -37%. In the case of `Cc1onc(-c2c(Cl)cccc2Cl)c1C(=O)NC(=S)Nc1sc2c(c1C(N)=O)CCC(C)C2` (stereo unspecified), the activity change (PNC), negative = inhibition is reported as inactive: 3.78%. With `Cc1ccc(-c2csc3ncnc(Sc4nnc(CN5CCCCCC5=O)o4)c23)cc1` the activity change (PNC), negative = inhibition was inconclusive: -32.2%. In the case of `Cc1ccc(C2C(C(=O)O)c3ccccc3C(=O)N2C)o1` (stereo unspecified), the activity change (PNC), negative = inhibition is reported as inactive: 45.8%. With `CCn1ncc(/C=N/NC(=O)c2ccc3c(c2)OCO3)c1C` the activity change (PNC), negative = inhibition was inconclusive: -30.6%. In the case of `CCOc1cc(S(=O)(=O)N2CCC(Cc3ccccc3)CC2)c(OCC)cc1-n1cnnn1`, the activity change (PNC), negative = inhibition is reported as inconclusive: -46.3%. For `CCOc1ccc(S(=O)(=O)n2cc(-c3ccccc3)c(N)n2)cc1`, the activity change (PNC), negative = inhibition was inconclusive: -37.6%. In the case of `O=C(CCCCCN1C(=O)CCC1=O)Nc1ncn[nH]1`, the activity change (PNC), negative = inhibition is reported as inconclusive: -58.6%. With `CN(C)c1ccc(C(=O)Nc2ccc(S(=O)(=O)NC3=NCCCCC3)cc2)cc1` the activity change (PNC), negative = inhibition was inconclusive: -49.5%. In the case of `Cc1cc(N/C(=N\S(=O)(=O)c2ccc(F)cc2F)c2ccccc2)no1`, the activity change (PNC), negative = inhibition is reported as inconclusive: -32.8%.
